We go through one substance from publication PMC6996932.

The chains behind the UniProt entries cited, without tags or fusion partners. Where a name states a change or a piece, a line headed by the entry shows the natural chain unless it says otherwise.
UniProt Q9ULT6: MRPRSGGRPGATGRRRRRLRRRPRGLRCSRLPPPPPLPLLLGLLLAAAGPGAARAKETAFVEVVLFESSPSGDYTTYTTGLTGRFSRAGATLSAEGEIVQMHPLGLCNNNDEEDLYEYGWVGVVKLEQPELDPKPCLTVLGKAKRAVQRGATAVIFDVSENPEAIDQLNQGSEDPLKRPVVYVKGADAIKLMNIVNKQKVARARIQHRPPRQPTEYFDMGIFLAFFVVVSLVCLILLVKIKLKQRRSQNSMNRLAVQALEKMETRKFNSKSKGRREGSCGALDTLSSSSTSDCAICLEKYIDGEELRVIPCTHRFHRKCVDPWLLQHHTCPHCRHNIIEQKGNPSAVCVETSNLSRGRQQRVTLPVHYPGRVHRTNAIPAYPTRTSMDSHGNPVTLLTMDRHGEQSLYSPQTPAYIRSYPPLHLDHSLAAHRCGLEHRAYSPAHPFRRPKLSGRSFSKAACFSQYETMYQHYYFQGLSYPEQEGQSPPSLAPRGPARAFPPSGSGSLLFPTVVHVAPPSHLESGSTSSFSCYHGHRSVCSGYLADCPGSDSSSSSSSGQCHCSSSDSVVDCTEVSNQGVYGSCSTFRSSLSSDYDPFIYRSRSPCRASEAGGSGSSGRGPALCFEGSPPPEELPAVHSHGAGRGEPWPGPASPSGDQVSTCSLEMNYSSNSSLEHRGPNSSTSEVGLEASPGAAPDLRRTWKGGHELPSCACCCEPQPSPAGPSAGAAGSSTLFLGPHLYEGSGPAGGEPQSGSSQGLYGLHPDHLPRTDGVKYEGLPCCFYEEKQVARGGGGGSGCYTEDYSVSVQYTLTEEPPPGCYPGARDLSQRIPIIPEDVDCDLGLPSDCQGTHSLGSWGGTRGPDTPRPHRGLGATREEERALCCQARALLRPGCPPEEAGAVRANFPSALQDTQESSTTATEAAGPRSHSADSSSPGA

Common to all, as to assay: co-IP; HEK293T cells transfected with the indicated constructs, analysed 48 hr after transfection; Triton lysis buffer (1% Triton X-100, 150 mM NaCl, pH 7.5), anti-V5 agarose or anti-HA with A/G plus agarose, 4°C overnight, Western blot
On the technique in general: In western blotting, separated proteins are transferred to a membrane and probed.

Experiment [1] deals with T1, V5 tagged PTPRK (1–1446), Protein tyrosine phosphatase receptor-type kappa (human) (UniProt Q15262).
T1 sequence: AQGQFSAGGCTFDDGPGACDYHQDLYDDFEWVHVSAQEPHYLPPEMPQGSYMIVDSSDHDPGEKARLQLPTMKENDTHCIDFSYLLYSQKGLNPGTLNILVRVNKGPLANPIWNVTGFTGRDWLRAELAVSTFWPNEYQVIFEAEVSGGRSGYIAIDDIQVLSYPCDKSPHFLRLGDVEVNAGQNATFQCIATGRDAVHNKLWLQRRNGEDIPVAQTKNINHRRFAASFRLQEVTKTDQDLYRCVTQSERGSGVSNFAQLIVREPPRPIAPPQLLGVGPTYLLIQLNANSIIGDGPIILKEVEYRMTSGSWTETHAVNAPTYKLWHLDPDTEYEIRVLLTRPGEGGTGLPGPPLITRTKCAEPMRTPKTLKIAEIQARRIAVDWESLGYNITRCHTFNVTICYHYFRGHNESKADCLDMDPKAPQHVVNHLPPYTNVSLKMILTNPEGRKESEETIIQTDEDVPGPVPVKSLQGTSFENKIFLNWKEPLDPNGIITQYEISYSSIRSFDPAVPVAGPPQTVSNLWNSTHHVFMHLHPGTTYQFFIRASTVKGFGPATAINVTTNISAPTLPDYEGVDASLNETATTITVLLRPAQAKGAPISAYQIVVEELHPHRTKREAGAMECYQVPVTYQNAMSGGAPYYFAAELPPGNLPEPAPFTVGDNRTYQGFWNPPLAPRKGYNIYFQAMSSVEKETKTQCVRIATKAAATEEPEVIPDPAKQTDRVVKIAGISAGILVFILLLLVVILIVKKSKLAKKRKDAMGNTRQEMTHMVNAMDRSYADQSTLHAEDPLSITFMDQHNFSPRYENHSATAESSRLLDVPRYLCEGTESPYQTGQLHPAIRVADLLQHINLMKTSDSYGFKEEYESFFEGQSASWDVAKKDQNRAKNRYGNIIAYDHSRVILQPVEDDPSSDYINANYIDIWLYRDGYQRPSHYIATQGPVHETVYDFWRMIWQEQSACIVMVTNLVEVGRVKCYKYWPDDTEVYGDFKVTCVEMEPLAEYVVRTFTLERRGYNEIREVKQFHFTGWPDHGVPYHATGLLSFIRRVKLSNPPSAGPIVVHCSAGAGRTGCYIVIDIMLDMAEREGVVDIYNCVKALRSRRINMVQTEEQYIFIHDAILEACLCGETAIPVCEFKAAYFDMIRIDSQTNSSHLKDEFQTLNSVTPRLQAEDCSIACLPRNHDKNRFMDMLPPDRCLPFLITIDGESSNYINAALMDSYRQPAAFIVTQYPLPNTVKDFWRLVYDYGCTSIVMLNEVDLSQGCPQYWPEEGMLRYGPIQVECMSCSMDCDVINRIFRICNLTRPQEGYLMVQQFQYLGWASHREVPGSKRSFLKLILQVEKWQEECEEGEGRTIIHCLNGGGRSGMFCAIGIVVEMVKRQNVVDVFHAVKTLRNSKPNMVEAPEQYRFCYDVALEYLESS

Experiment [2] addresses T2, V5 tagged PTPRKΔC (1-776) (human) (UniProt Q15262).
T2 sequence: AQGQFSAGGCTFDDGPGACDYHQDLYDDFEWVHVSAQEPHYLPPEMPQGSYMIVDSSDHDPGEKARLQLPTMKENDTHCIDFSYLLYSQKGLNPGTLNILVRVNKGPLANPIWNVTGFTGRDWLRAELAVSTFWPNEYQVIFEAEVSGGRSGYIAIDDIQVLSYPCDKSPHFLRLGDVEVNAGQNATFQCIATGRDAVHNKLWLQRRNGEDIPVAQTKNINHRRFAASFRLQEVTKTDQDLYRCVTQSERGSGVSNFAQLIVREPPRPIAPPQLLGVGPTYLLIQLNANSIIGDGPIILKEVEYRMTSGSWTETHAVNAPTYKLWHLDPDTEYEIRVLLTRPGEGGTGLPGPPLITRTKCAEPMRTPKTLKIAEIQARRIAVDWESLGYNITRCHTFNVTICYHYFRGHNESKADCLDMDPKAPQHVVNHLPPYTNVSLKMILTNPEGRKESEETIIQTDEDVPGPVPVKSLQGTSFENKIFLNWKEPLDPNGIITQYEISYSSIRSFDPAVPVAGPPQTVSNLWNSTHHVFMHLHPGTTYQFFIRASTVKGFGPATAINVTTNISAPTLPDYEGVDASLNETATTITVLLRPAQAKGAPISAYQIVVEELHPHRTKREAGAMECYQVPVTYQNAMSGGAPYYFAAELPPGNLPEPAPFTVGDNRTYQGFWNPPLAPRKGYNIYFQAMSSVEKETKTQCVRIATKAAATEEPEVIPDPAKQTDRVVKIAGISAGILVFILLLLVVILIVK

Experiment [3] concerns the target T3, V5-PTPRK-DA (D1057A; Asp in WPD loop changed to Ala) (human) (UniProt Q15262).
T3 sequence: T1 sequence with D1031A

Changes are numbered by the printed parent chain. No constants are given. Whether binding was seen depends on the method and setting. Binding seen in cells or lysates may run through a third protein. For part of these data: Binding calls can cover weak binding; strength is not graded here. Sequences can lack the tags named with a protein.

Regarding “Myc-ZNRF3-ΔRING (from UniProt Q9ULT6) (enzyme)”, the values for the binding entry in experiment [1], in experiment [2] and in experiment [3] were “binds”, “no binding” and “binds”, respectively.
